# This is one part of the list. Most entries show no effect beyond the scatter of the controls.
# The chains behind the UniProt entries cited, without tags or fusion partners. Where a name states a change or a piece, a line headed by the entry shows the natural chain unless it says otherwise.
# UniProt P22695: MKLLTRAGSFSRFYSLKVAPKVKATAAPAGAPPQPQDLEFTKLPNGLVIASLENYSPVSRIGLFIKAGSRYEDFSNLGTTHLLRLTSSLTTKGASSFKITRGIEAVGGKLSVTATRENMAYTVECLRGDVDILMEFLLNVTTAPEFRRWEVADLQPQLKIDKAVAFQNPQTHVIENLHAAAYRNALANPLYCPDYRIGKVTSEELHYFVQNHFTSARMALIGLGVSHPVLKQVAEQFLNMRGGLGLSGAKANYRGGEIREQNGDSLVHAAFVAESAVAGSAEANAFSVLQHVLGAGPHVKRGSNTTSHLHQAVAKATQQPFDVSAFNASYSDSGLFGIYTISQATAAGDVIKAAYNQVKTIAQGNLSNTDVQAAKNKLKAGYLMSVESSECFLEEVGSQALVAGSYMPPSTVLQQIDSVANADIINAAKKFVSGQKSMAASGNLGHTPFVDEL
# UniProt P21127: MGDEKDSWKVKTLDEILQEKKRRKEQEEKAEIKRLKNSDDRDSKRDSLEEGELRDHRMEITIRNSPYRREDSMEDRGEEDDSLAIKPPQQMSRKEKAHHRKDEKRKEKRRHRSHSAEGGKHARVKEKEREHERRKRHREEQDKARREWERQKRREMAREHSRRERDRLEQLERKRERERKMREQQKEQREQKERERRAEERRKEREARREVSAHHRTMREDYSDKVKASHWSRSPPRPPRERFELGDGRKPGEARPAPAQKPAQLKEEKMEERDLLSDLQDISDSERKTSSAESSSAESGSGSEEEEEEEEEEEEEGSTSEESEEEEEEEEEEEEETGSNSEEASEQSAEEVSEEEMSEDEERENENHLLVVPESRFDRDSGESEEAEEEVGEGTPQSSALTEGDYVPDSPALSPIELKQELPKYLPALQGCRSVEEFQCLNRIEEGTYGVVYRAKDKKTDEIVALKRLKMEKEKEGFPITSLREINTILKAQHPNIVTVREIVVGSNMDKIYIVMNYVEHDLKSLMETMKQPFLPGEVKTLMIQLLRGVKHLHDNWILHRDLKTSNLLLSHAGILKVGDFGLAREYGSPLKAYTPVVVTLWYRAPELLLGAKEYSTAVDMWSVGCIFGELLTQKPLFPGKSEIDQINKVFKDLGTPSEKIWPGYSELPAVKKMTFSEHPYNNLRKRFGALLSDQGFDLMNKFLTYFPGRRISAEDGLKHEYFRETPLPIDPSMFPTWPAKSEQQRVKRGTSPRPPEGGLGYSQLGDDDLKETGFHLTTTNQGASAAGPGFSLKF
# UniProt P19338, whole entry: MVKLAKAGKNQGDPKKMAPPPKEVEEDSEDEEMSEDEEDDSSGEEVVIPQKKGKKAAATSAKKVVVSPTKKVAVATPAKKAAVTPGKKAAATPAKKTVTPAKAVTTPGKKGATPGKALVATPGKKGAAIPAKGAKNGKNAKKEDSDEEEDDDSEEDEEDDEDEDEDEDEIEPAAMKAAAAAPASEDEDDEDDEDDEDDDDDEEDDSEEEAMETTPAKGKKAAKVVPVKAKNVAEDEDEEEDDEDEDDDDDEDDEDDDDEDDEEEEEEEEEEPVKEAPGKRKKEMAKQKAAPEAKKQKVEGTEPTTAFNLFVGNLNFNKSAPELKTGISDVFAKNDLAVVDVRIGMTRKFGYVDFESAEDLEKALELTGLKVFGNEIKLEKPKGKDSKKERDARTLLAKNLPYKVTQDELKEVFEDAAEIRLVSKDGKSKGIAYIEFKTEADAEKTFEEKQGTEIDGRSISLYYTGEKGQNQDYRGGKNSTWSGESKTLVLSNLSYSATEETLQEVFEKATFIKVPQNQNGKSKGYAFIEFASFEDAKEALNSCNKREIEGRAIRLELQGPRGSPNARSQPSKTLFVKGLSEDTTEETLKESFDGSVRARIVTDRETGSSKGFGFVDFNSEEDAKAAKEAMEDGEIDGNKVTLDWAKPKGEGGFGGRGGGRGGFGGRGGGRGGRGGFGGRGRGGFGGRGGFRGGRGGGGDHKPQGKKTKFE
# UniProt P20962: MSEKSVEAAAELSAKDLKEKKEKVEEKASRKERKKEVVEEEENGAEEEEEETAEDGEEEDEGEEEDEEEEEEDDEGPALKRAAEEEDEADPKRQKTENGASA
# UniProt P17010: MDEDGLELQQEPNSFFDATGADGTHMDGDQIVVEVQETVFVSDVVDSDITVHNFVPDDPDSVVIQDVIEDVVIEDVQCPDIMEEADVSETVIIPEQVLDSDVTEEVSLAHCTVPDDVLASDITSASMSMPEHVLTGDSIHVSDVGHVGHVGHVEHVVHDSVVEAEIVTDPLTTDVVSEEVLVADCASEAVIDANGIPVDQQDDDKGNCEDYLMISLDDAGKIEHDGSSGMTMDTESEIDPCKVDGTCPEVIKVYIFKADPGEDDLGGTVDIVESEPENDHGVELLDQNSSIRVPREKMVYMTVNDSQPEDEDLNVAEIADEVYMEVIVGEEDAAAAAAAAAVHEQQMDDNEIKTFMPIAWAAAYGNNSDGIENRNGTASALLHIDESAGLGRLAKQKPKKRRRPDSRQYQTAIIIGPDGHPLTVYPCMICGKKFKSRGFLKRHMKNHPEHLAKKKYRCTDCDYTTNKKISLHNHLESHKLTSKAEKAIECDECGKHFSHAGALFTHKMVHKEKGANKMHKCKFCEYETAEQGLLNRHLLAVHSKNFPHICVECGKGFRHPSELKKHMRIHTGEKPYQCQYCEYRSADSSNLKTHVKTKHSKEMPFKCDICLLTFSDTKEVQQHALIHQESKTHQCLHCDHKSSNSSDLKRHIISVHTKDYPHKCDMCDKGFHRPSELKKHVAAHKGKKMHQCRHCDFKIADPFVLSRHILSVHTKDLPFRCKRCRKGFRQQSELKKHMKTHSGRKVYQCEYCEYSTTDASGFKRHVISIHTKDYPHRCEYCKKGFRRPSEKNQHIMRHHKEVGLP
# UniProt P26583: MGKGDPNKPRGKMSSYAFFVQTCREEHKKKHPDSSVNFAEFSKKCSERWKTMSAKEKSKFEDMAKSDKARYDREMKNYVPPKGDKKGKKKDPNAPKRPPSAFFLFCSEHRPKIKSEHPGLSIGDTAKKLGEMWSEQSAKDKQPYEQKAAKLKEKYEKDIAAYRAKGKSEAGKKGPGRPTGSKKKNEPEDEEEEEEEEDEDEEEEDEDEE
# UniProt P22612, whole entry, looked up: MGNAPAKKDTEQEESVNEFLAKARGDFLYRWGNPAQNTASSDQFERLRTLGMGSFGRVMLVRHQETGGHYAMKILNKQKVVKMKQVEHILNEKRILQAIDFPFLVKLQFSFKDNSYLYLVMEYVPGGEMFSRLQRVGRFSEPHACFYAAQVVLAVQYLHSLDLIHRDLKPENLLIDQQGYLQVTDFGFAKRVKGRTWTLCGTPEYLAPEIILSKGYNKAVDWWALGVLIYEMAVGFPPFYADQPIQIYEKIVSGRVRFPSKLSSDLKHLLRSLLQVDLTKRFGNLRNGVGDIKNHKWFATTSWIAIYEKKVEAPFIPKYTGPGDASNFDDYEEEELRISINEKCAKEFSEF
# UniProt P20933: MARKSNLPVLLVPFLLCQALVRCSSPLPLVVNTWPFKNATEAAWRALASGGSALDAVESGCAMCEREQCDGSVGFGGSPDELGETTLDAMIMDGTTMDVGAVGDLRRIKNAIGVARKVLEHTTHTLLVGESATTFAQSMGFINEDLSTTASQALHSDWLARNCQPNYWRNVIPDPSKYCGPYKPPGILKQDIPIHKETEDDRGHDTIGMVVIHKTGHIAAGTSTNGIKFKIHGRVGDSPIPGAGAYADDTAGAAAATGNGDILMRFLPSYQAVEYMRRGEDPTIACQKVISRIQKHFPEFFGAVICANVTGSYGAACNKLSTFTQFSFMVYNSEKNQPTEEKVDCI
# UniProt P17097: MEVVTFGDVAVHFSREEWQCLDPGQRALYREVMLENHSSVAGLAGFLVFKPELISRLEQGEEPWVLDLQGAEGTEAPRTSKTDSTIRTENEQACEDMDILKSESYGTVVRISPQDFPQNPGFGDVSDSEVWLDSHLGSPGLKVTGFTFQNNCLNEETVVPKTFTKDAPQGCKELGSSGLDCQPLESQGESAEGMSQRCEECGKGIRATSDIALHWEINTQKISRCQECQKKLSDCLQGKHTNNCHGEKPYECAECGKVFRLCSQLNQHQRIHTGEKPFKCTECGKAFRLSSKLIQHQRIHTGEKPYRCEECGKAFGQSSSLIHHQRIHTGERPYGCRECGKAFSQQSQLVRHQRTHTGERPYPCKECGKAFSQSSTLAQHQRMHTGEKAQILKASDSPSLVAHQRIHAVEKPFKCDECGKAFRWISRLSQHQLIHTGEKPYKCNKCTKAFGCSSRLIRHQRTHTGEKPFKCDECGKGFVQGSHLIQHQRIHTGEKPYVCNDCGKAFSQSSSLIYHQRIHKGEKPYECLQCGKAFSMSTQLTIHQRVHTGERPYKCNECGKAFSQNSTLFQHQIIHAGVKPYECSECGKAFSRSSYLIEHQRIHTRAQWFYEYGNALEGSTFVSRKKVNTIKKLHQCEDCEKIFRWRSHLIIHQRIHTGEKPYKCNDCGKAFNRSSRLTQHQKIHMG
# UniProt P19105: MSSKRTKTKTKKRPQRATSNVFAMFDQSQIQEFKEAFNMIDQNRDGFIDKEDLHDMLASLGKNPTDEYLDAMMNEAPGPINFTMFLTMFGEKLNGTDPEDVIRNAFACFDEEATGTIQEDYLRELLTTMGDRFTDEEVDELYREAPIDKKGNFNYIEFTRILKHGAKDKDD
# UniProt P20020: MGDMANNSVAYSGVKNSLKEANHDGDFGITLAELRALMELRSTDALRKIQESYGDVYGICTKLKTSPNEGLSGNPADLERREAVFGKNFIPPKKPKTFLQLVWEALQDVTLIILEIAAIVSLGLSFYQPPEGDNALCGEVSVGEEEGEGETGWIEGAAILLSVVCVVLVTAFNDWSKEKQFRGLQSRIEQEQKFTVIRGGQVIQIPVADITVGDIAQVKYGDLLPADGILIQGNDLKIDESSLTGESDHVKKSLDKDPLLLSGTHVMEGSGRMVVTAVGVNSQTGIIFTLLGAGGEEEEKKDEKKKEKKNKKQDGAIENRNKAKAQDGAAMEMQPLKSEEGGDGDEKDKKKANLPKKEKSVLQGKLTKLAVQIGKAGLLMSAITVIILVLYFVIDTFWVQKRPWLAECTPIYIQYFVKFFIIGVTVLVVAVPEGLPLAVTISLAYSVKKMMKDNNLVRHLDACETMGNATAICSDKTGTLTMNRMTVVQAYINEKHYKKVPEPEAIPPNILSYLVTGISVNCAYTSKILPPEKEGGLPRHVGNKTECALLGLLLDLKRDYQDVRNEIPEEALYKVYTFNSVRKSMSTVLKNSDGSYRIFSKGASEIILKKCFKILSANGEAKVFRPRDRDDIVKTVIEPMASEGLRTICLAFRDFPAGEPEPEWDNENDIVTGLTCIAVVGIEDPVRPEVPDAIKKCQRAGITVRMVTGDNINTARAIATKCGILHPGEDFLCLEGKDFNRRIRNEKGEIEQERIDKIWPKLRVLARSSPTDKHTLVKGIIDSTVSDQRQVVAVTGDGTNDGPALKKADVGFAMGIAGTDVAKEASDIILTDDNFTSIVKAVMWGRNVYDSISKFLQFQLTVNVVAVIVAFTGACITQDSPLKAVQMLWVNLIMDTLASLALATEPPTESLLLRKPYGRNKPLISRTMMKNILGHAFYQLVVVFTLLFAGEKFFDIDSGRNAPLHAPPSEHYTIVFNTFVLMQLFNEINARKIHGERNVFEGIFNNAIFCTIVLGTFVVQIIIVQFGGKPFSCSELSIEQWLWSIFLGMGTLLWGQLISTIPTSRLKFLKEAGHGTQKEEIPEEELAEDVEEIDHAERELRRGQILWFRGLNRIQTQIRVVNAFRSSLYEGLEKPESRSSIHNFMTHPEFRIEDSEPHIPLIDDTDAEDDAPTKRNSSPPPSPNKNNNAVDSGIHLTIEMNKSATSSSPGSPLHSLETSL
# UniProt P23786: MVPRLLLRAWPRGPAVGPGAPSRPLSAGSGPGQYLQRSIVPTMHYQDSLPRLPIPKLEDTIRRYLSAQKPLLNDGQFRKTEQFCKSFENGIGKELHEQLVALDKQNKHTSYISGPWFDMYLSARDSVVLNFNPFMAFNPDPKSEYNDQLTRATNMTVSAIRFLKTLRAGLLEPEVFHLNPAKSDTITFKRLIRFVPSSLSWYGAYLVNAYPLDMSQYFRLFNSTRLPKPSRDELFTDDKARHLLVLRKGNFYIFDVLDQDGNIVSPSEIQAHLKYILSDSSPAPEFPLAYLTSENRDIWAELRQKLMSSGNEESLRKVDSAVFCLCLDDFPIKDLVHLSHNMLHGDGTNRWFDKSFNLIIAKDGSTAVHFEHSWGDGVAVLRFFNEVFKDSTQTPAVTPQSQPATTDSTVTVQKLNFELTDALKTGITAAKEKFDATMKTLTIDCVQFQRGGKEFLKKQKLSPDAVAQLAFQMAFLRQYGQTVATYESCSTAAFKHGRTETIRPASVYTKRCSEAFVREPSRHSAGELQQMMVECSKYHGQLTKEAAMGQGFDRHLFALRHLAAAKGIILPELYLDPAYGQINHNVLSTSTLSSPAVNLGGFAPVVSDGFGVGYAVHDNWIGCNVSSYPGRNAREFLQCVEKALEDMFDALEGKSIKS
# Compound: Cc1nc(Nc2ncc(C(=O)Nc3c(C)cccc3Cl)s2)cc(N2CCN(CCO)CC2)n1 [dasatinib]
# Test: log2 fold change of tryptic peptide abundance, ligand vs vehicle (limited proteolysis) (log2 ratio); higher = more trypsin-susceptible (destabilized)
# Conditions: ligand concentration: 5 uM; sample: K562 cleared lysate
row,Target,log2 fold change
1,"TEAD1 (peptide sequence: ALQHMAAMSSAQIVSATAIHNK, peptide start residue: 118) (UniProt P28347)",-0.133
2,"UniProt P27361 (peptide sequence: LKELIFQETAR, peptide start residue: 360)",-0.202
3,"ATF7 (peptide sequence: AADEDEKK, peptide start residue: 81) (UniProt P17544)",0.0719
4,"DES (peptide sequence: KLLEGEESR, peptide start residue: 402) (UniProt P17661)",-0.091
5,"UQCRC2 (peptide sequence: WEVADLQPQLK, peptide start residue: 149) (UniProt P22695)",0.537
6,"UniProt P21127 (peptide sequence: DSLEEGELRDHR, peptide start residue: 46)",-0.135
7,"NCL (peptide sequence: KVAVATPAKK, peptide start residue: 71) (UniProt P19338)",-0.12
8,"PTMS (peptide sequence: KEKVEEK, peptide start residue: 21) (UniProt P20962)",0.191
9,"ATF2 (peptide sequence: KSGYHTADK, peptide start residue: 426) (UniProt P15336)",-0.489
10,"BTF3 (peptide sequence: GGCPGGEATLSQPPPRGGTR, peptide start residue: 20) (UniProt P20290)",-0.566
11,"UniProt P16383 (peptide sequence: AQVAGLPHR, peptide start residue: 52)",-0.188
12,"ZFX (peptide sequence: CTDCDYTTNKK, peptide start residue: 458) (UniProt P17010)",-0.611
13,"HMGB2 (peptide sequence: SKFEDMAK, peptide start residue: 58) (UniProt P26583)",0.0845
14,"COMT (peptide sequence: DKVTLVVGASQDIIPQLK, peptide start residue: 160) (UniProt P21964)",0.098
15,"RPL10 (peptide sequence: EHVIEALRR, peptide start residue: 146) (UniProt P27635)",-0.421
16,"UniProt P15391 (peptide sequence: GILYAAPQLR, peptide start residue: 505)",0.116
17,"EEF1B2 (peptide sequence: LVPVGYGIKK, peptide start residue: 177) (UniProt P24534)",-0.0552
18,"POU2F1 (peptide sequence: TSIETNIR, peptide start residue: 384) (UniProt P14859)",0.0457
19,"UniProt P15622 (peptide sequence: IDQENNETK, peptide start residue: 154)",-0.278
20,"PRKACG (peptide sequence: KVEAPFIPK, peptide start residue: 310) (UniProt P22612)",0.0557
21,"AGA (peptide sequence: RGEDPTIACQK, peptide start residue: 278) (UniProt P20933)",0.611
22,"UniProt P17097 (peptide sequence: ASDSPSLVAHQR, peptide start residue: 394)",0.0623
23,"FOSL1 (peptide sequence: ALGPPPGVR, peptide start residue: 85) (UniProt P15407)",0.0213
24,"MYL12A (peptide sequence: GNFNYIEFTR, peptide start residue: 152) (UniProt P19105)",-0.0726
25,"PTPN1 (peptide sequence: ELSHEDLEPPPEHIPPPPRPPKR, peptide start residue: 293) (UniProt P18031)",-0.825
26,"RCC1 (peptide sequence: SPPADAIPK, peptide start residue: 11) (UniProt P18754)",-0.352
27,"ATP2B1 (peptide sequence: SSIHNFMTHPEFR, peptide start residue: 1139) (UniProt P20020)",-0.188
28,"CPT2 (peptide sequence: SFNLIIAK, peptide start residue: 355) (UniProt P23786)",-0.534
29,"TFEB (peptide sequence: FAAHISPAQGSPKPPPAASPGVR, peptide start residue: 104) (UniProt P19484)",-0.301

# As entered above.
# log2 fold change, ATP2B1 (peptide sequence: SSIHNFMTHPEFR, peptide start residue: 1139) (UniProt P20020) reads -0.188
# log2 fold change, MYL12A (peptide sequence: GNFNYIEFTR, peptide start residue: 152) (UniProt P19105) reads -0.0726

# From the supplement of paper PMC12819154, “High-throughput peptide-centric local stability assay extends protein–ligand identification to membrane proteins, tissues and bacteria” (Nature Structural & Molecular Biology, 2025)
